No signal at the amounts used counts as a negative. Where a protein sequence is shown, tags need not be part of it.
Target: T1, HMG domain B (of HMG1) (UniProt P63159)
T1 sequence (looked up, limits assumed): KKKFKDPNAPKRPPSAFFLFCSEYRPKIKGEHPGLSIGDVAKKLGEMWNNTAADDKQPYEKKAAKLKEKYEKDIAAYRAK
Test: EMSA
Settings: 10-40 equiv protein; purified recombinant protein; protein details: expressed from pHB1 in E. coli BL21(DE3); label: 5'-32P; variant of 15Pt/15B cisplatin-modified 15-bp duplex

CCTCTCTGGTTCTTC (double strand) [unplatinated 15-bp duplex]
binding result: no binding
